Measurements taken from paper PMC6713327.

Chains of the proteins cited; added tags and fusions are not shown.
UniProt O95714: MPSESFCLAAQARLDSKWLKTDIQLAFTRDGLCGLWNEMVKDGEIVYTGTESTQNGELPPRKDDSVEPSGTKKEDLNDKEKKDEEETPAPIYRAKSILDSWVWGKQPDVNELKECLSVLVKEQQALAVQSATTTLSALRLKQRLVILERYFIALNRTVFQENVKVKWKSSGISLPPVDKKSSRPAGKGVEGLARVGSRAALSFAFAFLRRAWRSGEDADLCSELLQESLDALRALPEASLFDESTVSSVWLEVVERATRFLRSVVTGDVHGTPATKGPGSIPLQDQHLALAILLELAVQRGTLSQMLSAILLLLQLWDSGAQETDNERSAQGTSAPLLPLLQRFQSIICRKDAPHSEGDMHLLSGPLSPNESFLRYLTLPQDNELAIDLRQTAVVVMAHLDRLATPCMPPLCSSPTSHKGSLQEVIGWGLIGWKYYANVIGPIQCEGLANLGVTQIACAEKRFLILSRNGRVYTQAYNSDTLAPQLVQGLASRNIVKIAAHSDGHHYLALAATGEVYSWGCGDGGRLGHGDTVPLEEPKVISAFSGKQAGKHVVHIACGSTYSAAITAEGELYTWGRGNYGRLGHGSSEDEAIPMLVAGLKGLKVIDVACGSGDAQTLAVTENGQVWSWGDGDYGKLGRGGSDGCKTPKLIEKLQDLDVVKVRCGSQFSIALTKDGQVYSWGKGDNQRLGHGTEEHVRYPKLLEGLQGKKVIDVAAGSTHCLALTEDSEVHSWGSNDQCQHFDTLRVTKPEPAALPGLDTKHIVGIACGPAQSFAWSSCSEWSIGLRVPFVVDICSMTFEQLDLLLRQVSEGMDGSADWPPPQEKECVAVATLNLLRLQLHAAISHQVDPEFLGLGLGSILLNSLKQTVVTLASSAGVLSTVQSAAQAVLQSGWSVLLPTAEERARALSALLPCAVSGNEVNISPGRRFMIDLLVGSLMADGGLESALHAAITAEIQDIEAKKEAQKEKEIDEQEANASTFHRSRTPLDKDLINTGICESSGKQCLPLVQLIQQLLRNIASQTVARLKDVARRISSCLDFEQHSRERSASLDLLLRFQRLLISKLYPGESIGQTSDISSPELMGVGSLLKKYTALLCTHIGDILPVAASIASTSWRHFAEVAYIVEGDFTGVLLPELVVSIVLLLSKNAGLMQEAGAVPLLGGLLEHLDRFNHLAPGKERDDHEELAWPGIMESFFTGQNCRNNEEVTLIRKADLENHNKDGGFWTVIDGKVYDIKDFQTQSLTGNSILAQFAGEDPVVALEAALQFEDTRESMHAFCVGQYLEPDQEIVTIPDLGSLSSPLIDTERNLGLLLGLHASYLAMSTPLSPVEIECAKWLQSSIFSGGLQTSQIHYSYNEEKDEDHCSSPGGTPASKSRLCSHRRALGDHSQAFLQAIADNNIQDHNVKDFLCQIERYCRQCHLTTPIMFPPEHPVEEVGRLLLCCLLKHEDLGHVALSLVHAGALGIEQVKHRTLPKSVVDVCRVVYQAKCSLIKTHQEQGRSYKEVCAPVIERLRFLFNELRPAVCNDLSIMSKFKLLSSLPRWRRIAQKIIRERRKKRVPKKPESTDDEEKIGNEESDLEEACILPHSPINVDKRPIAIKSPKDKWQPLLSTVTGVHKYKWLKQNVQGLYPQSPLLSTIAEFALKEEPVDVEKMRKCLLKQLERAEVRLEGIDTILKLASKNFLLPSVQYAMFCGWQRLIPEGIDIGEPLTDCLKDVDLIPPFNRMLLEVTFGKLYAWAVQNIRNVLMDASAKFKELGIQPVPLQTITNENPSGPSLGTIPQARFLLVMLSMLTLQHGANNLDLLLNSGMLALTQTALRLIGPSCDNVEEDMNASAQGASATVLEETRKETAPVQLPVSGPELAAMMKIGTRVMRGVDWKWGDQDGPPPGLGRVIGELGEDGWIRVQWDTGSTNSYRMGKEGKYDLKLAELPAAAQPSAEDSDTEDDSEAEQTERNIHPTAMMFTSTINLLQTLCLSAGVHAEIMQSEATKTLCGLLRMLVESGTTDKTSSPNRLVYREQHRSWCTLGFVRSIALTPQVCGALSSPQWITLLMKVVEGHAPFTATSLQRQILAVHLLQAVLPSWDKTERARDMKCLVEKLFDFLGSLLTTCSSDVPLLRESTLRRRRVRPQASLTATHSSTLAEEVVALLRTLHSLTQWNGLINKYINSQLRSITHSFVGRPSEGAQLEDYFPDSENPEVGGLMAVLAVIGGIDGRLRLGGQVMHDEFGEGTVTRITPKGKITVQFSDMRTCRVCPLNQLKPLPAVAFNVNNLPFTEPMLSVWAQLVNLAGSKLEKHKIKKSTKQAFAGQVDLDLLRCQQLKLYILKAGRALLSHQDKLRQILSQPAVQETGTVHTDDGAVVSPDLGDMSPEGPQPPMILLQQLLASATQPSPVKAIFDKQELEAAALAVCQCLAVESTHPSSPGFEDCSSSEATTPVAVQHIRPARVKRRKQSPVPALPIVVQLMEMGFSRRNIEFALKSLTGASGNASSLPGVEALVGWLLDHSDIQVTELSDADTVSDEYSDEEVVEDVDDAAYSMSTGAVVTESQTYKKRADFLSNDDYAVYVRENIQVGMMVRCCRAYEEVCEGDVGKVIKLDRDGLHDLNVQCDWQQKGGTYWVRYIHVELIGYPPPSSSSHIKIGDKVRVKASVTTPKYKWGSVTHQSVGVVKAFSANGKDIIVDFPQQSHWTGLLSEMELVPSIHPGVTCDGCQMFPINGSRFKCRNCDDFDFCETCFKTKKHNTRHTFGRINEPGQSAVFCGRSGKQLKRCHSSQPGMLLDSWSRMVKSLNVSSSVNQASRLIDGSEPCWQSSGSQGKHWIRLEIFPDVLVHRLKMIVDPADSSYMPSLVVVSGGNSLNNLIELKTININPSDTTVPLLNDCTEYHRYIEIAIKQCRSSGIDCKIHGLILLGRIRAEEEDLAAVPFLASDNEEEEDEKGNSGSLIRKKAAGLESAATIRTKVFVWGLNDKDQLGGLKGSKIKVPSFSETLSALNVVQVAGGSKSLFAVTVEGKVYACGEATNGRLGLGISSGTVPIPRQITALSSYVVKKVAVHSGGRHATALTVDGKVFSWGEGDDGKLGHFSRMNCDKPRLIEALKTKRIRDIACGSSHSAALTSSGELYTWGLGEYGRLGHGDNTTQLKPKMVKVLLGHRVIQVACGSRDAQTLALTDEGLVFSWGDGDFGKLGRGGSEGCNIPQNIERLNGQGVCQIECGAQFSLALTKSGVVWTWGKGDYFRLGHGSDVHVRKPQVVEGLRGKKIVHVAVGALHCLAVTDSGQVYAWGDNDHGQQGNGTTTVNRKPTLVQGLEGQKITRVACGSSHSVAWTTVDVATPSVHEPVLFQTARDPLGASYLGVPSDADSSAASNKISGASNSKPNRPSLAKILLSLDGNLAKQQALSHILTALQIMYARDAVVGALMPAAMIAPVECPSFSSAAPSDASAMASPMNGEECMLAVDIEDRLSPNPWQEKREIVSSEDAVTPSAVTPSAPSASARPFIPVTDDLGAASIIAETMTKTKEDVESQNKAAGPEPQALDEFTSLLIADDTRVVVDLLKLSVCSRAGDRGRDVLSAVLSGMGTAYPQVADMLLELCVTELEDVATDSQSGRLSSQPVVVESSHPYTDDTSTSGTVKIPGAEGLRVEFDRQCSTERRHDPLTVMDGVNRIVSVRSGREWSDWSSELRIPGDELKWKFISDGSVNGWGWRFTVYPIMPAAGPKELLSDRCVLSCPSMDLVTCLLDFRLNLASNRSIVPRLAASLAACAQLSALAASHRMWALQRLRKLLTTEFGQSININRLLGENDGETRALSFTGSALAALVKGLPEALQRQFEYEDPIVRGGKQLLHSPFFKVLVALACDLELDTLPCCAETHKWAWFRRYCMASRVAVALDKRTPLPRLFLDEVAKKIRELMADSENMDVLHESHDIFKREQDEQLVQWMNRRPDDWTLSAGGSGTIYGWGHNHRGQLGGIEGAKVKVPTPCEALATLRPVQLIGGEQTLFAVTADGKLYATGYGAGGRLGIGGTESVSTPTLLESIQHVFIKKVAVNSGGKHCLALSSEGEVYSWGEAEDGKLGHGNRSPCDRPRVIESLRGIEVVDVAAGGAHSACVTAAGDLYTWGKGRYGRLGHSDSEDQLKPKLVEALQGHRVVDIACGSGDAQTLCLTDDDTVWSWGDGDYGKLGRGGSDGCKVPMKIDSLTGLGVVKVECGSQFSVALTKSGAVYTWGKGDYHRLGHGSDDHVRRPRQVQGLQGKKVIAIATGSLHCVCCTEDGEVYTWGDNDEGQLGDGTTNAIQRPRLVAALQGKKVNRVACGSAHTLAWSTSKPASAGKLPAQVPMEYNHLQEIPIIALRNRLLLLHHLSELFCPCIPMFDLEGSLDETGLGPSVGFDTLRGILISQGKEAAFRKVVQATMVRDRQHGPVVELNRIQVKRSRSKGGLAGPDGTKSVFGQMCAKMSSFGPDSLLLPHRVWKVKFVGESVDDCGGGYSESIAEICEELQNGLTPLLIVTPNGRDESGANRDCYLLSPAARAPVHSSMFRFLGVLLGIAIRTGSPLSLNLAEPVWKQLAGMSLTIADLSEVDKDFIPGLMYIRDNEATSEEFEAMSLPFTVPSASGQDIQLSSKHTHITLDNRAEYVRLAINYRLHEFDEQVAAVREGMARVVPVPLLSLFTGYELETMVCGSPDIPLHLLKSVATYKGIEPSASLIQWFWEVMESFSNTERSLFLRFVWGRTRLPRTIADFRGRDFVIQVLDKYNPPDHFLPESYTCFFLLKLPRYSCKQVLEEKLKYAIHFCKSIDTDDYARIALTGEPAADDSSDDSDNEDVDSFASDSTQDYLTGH
UniProt P20585: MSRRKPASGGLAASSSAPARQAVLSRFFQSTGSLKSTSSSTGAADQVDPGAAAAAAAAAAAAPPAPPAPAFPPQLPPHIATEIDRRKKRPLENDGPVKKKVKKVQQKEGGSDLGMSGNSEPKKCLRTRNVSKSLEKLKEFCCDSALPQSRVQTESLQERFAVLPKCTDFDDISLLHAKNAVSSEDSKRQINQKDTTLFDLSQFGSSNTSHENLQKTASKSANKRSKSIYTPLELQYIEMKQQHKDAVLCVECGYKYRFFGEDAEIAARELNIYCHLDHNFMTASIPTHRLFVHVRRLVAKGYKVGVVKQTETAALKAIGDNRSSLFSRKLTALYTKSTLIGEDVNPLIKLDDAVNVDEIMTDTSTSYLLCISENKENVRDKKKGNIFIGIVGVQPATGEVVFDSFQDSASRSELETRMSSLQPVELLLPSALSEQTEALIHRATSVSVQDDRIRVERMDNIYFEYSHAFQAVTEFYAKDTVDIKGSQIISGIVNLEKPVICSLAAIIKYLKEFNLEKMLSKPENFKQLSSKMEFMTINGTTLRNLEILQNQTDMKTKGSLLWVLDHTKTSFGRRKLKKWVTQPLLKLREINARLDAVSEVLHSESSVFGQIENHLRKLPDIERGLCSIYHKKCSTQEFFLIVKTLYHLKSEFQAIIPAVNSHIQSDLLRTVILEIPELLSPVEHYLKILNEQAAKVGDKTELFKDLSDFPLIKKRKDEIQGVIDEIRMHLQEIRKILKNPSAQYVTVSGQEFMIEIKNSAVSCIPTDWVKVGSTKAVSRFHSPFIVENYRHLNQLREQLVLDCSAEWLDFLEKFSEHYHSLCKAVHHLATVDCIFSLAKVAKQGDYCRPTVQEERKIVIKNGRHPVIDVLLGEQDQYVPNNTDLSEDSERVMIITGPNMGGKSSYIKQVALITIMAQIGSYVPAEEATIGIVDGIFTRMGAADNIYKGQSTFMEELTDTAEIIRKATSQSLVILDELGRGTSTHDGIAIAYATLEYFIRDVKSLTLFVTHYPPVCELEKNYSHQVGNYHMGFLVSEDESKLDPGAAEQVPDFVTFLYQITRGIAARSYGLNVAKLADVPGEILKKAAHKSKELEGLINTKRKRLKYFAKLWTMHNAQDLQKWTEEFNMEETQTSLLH
UniProt P35250: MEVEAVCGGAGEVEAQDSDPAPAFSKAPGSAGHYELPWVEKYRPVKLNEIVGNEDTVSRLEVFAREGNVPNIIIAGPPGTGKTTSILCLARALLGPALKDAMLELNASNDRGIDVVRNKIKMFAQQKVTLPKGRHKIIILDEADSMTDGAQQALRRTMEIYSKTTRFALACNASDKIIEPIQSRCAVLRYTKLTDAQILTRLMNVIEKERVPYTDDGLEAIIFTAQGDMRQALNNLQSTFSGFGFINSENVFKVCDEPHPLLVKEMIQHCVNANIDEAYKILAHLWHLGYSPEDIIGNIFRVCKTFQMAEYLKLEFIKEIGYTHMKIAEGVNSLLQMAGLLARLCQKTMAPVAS

Tests used:
[1] = molecular target: T1, FANCA (human (endogenous in 293FT and EndoC-βH3)) (UniProt O15360); experiment: affinity purification with mass spectrometry; endogenous FANCA precipitated from 293FT lysate (NETN buffer) with anti-FANCA antibody coupled to Dynabeads, 2 h at 4°C; rabbit IgG as negative control; LC-MS/MS, SAINT (BFDR ≤ 0.05, SAINT score ≥ 0.8); biological duplicates
T1 sequence: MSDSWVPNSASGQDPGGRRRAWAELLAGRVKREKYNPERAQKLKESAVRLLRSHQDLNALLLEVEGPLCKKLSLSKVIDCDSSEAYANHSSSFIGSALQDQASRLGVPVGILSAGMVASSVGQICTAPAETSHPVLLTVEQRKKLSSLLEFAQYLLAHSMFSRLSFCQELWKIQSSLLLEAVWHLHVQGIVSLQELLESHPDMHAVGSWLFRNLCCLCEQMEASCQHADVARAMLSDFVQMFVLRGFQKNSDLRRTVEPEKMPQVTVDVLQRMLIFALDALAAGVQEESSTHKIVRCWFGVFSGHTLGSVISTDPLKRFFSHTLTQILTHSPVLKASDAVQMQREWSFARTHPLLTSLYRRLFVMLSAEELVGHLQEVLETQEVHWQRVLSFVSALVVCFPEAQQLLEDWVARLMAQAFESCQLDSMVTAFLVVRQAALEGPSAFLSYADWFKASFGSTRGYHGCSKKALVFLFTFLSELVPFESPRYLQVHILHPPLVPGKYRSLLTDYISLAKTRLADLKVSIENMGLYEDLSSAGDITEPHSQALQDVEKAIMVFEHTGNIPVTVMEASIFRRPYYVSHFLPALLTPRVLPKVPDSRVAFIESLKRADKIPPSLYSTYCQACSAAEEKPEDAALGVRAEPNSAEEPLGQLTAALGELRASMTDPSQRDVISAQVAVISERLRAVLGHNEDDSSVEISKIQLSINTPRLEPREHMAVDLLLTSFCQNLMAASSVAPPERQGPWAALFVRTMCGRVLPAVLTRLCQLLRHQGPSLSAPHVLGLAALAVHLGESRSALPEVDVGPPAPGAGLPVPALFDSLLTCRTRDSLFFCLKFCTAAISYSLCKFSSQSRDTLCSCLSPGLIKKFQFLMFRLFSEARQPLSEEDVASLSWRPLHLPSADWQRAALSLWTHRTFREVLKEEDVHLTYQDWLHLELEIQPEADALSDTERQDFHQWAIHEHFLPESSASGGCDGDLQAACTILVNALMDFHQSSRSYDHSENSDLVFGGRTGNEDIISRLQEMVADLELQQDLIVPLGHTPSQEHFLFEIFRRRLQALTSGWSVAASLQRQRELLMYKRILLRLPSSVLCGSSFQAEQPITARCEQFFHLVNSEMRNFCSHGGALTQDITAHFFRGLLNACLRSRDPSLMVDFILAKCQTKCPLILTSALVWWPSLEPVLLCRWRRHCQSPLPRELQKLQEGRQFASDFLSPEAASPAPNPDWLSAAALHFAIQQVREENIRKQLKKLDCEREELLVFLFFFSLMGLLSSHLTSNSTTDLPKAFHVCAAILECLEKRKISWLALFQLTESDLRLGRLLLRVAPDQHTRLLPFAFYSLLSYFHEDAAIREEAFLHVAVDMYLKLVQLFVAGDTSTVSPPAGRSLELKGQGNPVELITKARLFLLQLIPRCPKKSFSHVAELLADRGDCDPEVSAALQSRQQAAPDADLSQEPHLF

[2] = molecular target: T1, FANCA (human (endogenous in 293FT and EndoC-βH3)); experiment: as above; remark: listed apart in the source
[3] = molecular target: T1, FANCA (human (endogenous in 293FT and EndoC-βH3)); experiment: condition: only cells in 5 mM glucose (not glucose-stimulated); affinity purification with mass spectrometry; as a2, only the EndoC-βH3 cells cultured in 5 mM glucose (not stimulated)
[4] = molecular target: T1, FANCA (human (endogenous in 293FT and EndoC-βH3)); experiment: affinity purification with mass spectrometry; endogenous FANCA precipitated from lysate of EndoC-βH3 cells cultured in 5 mM or 20 mM glucose, anti-FANCA antibody coupled to Dynabeads, 2 h at 4°C; LC-MS/MS, SAINT (BFDR ≤ 0.05, SAINT score = 1.0); biological duplicates

| Molecule | binding [1] | binding [2] | binding [3] | binding [4] |
| --- | --- | --- | --- | --- |
| RFC5 (from UniProt P40937 1-340) | binds |  |  |  |
| HERC2 (from UniProt O95714 1-4834) | binds |  |  |  |
| MSH3 (from UniProt P20585 1-1137) | binds |  |  |  |
| RFC2 (from UniProt P35250 1-354) | binds |  |  |  |
| RFC4 (from UniProt P35249 1-363) | binds |  |  |  |
| FANCB (protein, UniProt Q8NB91 1-859) MTSKQAMSSNEQERLLCYNGEVLVFQLSKGNFADKEPTKTPILHVRRMVFDRGTKVFVQKSTGFFTIKEENSHLKIMCCNCVSDFRTGINLPYIVIEKNKKNNVFEYFLLILHSTNKFEMRLSFKLGYEMKDGLRVLNGPLILWRHVKAFFFISSQTGKVVSVSGNFSSIQWAGEIENLGMVLLGLKECCLSEEECTQEPSKSDYAIWNTKFCVYSLESQEVLSDIYIIPPAYSSVVTYVHICATEIIKNQLRISLIALTRKNQLISFQNGTPKNVCQLPFGDPCAVQLMDSGGGNLFFVVSFISNNACAVWKESFQVAAKWEKLSLVLIDDFIGSGTEQVLLLFKDSLNSDCLTSFKITDLGKINYSSEPSDCNEDDLFEDKQENRYLVVPPLETGLKVCFSSFRELRQHLLLKEKIISKSYKALINLVQGKDDNTSSAEEKECLVPLCGEEENSVHILDEKLSDNFQDSEQLVEKIWYRVIDDSLVVGVKTTSSLKLSLNDVTLSLLMDQAHDSRFRLLKCQNRVIKLSTNPFPAPYLMPCEIGLEAKRVTLTPDSKKEESFVCEHPSKKECVQIITAVTSLSPLLTFSKFCCTVLLQIMERESGNCPKDRYVVCGRVFLSLEDLSTGKYLLTFPKKKPIEHMEDLFALLAAFHKSCFQITSPGYALNSMKVWLLEHMKCEIIKEFPEVYFCERPGSFYGTLFTWKQRTPFEGILIIYSRNQTVMFQCLHNLIRILPINCFLKNLKSGSENFLIDNMAFTLEKELVTLSSLSSAIAKHESNFMQRCEVSKGKSSVVAAALSDRRENIHPYRKELQREKKKMLQTNLKVSGALYREITLKVAEVQLKSDFAAQKLSNL |  | binds | no binding | binds |
| FANCG (protein, UniProt O15287 1-622) MSRQTTSVGSSCLDLWREKNDRLVRQAKVAQNSGLTLRRQQLAQDALEGLRGLLHSLQGLPAAVPVLPLELTVTCNFIILRASLAQGFTEDQAQDIQRSLERVLETQEQQGPRLEQGLRELWDSVLRASCLLPELLSALHRLVGLQAALWLSADRLGDLALLLETLNGSQSGASKDLLLLLKTWSPPAEELDAPLTLQDAQGLKDVLLTAFAYRQGLQELITGNPDKALSSLHEAASGLCPRPVLVQVYTALGSCHRKMGNPQRALLYLVAALKEGSAWGPPLLEASRLYQQLGDTTAELESLELLVEALNVPCSSKAPQFLIEVELLLPPPDLASPLHCGTQSQTKHILASRCLQTGRAGDAAEHYLDLLALLLDSSEPRFSPPPSPPGPCMPEVFLEAAVALIQAGRAQDALTLCEELLSRTSSLLPKMSRLWEDARKGTKELPYCPLWVSATHLLQGQAWVQLGAQKVAISEFSRCLELLFRATPEEKEQGAAFNCEQGCKSDAALQQLRAAALISRGLEWVASGQDTKALQDFLLSVQMCPGNRDTYFHLLQTLKRLDRRDEATALWWRLEAQTKGSHEDALWSLPLYLESYLSWIRPSDRDAFLEEFRTSLPKSCDL |  | binds |  | binds |
| FANCL (protein, UniProt Q9NW38 1-375) MAVTEASLLRQCPLLLPQNRSKTVYEGFISAQGRDFHLRIVLPEDLQLKNARLLCSWQLRTILSGYHRIVQQRMQHSPDLMSFMMELKMLLEVALKNRQELYALPPPPQFYSSLIEEIGTLGWDKLVYADTCFSTIKLKAEDASGREHLITLKLKAKYPAESPDYFVDFPVPFCASWTPQSSLISIYSQFLAAIESLKAFWDVMDEIDEKTWVLEPEKPPRSATARRIALGNNVSINIEVDPRHPTMLPECFFLGADHVVKPLGIKLSRNIHLWDPENSVLQNLKDVLEIDFPARAILEKSDFTMDCGICYAYQLDGTIPDQVCDNSQCGQPFHQICLYEWLRGLLTSRQSFNIIFGECPYCSKPITLKMSGRKH |  | binds |  | binds |
| FANCF (protein, UniProt Q9NPI8 1-374) MESLLQHLDRFSELLAVSSTTYVSTWDPATVRRALQWARYLRHIHRRFGRHGPIRTALERRLHNQWRQEGGFGRGPVPGLANFQALGHCDVLLSLRLLENRALGDAARYHLVQQLFPGPGVRDADEETLQESLARLARRRSAVHMLRFNGYRENPNLQEDSLMKTQAELLLERLQEVGKAEAERPARFLSSLWERLPQNNFLKVIAVALLQPPLSRRPQEELEPGIHKSPGEGSQVLVHWLLGNSEVFAAFCRALPAGLLTLVTSRHPALSPVYLGLLTDWGQRLHYDLQKGIWVGTESQDVPWEELHNRFQSLCQAPPPLKDKVLTALETCKAQDGDFEVPGLSIWTDLLLALRSGAFRKRQVLGLSAGLSSV |  |  | no binding | binds |
| FAAP100 (protein, UniProt Q0VG06 1-881) MAGAAPRVRYLAGFCCPLGGLAAGKPRVLCHEAEVFLSTGSELVYVYDQEGGLLTAAFRFPDQVWHLELLAPRRLLYALCARRGLYCLSLDHPGRSRSTSQDDRDSEDGDQPSPVIPVDPDACILPDAALCAFTLLDSVLVTLVQGPARWKMQLFEQPCPGEDPRPGGQIGEVELSSYTPPAGVPGKPAAPHFLPVLCSVSPSGSRVPHDLLGGSGGFTLEDALFGLLFGADATLLQSPVVLCGLPDGQLCCVILKALVTSRSAPGDPNALVKILHHLEEPVIFIGALKTEPQAAEAAENFLPDEDVHCDCLVAFGHHGRMLAIKASWDESGKLVPELREYCLPGPVLCAACGGGGRVYHSTPSDLCVVDLSRGSTPLGPEQPEEGPGGLPPMLCPASLNICSVVSLSASPRTHEGGTKLLALSAKGRLMTCSLDLDSEMPGPARMTTESAGQKIKELLSGIGNISERVSFLKKAVDQRNKALTSLNEAMNVSCALLSSGTGPRPISCTTSTTWSRLQTQDVLMATCVLENSSSFSLDQGWTLCIQVLTSSCALDLDSACSAITYTIPVDQLGPGARREVTLPLGPGENGGLDLPVTVSCTLFYSLREVVGGALAPSDSEDPFLDECPSDVLPEQEGVCLPLSRHTVDMLQCLRFPGLAPPHTRAPSPLGPTRDPVATFLETCREPGSQPAGPASLRAEYLPPSVASIKVSAELLRAALKDGHSGVPLCCATLQWLLAENAAVDVVRARALSSIQGVAPDGANVHLIVREVAMTDLCPAGPIQAVEIQVESSSLADICRAHHAVVGRMQTMVTEQATQGSSAPDLRVQYLRQIHANHETLLREVQTLRDRLCTEDEASSCATAQRLLQVYRQLRHPSLILL |  | binds | no binding | binds |
| FANCE (protein, UniProt Q9HB96 1-536) MATPDAGLPGAEGVEPAPWAQLEAPARLLLQALQAGPEGARRGLGVLRALGSRGWEPFDWGRLLEALCREEPVVQGPDGRLELKPLLLRLPRICQRNLMSLLMAVRPSLPESGLLSVLQIAQQDLAPDPDAWLRALGELLRRDLGVGTSMEGASPLSERCQRQLQSLCRGLGLGGRRLKSPQAPDPEEEENRDSQQPGKRRKDSEEEAASPEGKRVPKRLRCWEEEEDHEKERPEHKSLESLADGGSASPIKDQPVMAVKTGEDGSNLDDAKGLAESLELPKAIQDQLPRLQQLLKTLEEGLEGLEDAPPVELQLLHECSPSQMDLLCAQLQLPQLSDLGLLRLCTWLLALSPDLSLSNATVLTRSLFLGRILSLTSSASRLLTTALTSFCAKYTYPVCSALLDPVLQAPGTGPAQTELLCCLVKMESLEPDAQVLMLGQILELPWKEETFLVLQSLLERQVEMTPEKFSVLMEKLCKKGLAATTSMAYAKLMLTVMTKYQANITETQRLGLAMALEPNTTFLRKSLKAALKHLGP |  |  | no binding | binds |

No constants are given. Whether binding was seen depends on the method and setting. Binding seen in cells or lysates may run through a third protein. These calls come from enrichment with a bait or labelling near it, and not all partners need be listed. For some of these results: A no says only that the protein was not detected with the bait.
